In PubChem BioAssay AID2073 (Sanford-Burnham Center for Chemical Genomics, 2009):
The whole screen tested about 290,000 compounds, of which about 570 (0.2%) were called active. The inconclusive results got no clear call from the source; some entries with a clear call stand among them for comparison. No stated cut-off is given here; in the data, active means inhibition mostly above about 51% (no sharp cut-off); inconclusive means no clear call, values can overlap the other calls; inactive means mostly below about 53%.

Protein sequences, listed by entry. Tags and fused reporters are not part of them.
UniProt Q00975, whole entry, looked up: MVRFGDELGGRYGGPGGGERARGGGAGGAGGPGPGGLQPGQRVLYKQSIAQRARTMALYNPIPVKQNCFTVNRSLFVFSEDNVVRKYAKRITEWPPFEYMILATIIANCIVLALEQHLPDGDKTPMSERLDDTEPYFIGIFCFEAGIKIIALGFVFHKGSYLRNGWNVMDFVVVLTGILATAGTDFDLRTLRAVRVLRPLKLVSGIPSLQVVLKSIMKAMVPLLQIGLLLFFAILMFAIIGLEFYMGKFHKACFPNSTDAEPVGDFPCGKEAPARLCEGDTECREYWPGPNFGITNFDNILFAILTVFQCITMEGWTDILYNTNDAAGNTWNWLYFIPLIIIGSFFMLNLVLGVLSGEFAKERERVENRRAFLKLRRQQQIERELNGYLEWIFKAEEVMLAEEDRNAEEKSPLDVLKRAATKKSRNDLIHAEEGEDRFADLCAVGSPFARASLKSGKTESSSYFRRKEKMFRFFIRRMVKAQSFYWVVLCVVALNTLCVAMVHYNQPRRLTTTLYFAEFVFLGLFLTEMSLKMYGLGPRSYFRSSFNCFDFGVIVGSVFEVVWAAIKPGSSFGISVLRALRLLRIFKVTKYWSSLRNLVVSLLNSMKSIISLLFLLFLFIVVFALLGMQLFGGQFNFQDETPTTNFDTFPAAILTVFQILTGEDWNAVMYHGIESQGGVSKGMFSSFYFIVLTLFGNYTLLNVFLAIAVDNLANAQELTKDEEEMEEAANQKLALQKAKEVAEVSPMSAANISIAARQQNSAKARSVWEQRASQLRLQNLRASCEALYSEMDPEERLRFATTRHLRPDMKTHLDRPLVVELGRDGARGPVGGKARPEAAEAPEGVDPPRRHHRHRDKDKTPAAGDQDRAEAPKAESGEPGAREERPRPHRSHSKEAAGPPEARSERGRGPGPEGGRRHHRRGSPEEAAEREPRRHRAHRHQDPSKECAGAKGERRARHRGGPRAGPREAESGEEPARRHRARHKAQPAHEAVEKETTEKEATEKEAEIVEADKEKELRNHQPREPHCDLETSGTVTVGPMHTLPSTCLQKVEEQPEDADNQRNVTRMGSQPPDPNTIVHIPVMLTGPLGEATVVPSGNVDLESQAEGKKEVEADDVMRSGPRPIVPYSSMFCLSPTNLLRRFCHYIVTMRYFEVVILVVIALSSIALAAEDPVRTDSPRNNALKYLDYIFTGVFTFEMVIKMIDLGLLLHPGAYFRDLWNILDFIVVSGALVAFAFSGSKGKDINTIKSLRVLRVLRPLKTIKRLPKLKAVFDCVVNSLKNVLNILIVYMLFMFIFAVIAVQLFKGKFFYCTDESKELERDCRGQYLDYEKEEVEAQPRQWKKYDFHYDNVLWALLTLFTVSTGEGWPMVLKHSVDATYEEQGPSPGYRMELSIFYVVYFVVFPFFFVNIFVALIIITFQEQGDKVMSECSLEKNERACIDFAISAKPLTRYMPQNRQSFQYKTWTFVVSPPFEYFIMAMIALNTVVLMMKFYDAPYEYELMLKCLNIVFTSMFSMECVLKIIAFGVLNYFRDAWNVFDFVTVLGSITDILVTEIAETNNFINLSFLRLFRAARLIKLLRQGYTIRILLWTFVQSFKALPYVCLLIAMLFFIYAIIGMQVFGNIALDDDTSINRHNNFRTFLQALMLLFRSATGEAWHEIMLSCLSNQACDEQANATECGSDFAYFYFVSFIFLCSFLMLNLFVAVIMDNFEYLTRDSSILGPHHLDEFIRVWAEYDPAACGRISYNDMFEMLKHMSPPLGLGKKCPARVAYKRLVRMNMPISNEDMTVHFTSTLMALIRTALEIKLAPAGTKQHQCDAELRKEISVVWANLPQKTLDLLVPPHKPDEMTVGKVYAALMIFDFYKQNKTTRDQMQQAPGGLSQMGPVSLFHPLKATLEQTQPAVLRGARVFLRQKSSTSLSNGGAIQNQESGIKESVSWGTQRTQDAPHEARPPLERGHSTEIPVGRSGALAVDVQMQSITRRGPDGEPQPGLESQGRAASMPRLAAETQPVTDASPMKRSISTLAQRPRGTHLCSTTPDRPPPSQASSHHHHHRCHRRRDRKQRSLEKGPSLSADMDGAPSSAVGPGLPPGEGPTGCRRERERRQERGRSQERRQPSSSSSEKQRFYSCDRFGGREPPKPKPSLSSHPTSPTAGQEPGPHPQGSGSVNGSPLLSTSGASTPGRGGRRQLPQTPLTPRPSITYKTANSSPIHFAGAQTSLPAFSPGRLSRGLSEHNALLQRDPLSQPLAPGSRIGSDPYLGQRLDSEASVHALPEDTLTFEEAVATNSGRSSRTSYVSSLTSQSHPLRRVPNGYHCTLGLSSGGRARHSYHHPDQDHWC

biological target: Voltage-dependent N-type calcium channel subunit alpha-1B (Homo sapiens) (UniProt Q00975); assay: disruptors of CaV2.2 binding to Mint1 – biochemical, HTRF (AID 2073); conditions: HTRF protein-protein interaction, Mint1-CaV2.2; at 20 µM; hits give high values

SMILES	inhibition
Cc1ccc(C)c(N2CCN(C(=O)c3ccc4nc(-c5ccco5)c(-c5ccco5)nc4c3)CC2)c1	inactive: 56.6%
Cc1ccc[n+](/C(C(=S)NCc2ccco2)=C(/[O-])c2ccccc2Cl)c1	inconclusive: 57.6%
Cc1sc2nc(Cc3ccccc3)[nH]c(=O)c2c1-c1ccccc1	inconclusive: 60.9%
O=C(NNc1nc(-c2ccc(F)cc2)cs1)c1ccccc1	active: 71.1%
Cc1cccc(-c2cc3nc(C)cc(N4CC(C)CC(C)C4)n3n2)c1 (centres undefined)	inconclusive: 57.6%
Nc1c(C(=O)N/N=C/c2cccnc2)oc2nc(-c3ccco3)cc(-c3ccco3)c12	inactive: 44.8%
Fc1ccc(C2=Nc3cccc4cccc(c34)N2)cc1	inactive: -8.3%
O=C(COC(=O)C1CCC(N2C(=O)C3C4CCC(C4)C3C2=O)CC1)c1ccc(F)cc1 (centres undefined)	inconclusive: 55.9%
CCN1CCN(C(=O)c2ccc(COc3ccc(Cl)cc3)o2)CC1	inconclusive: 73.9%
CCC1(C)Cc2nc3sc(C(=O)O)c(N)c3cc2CO1 (centres undefined)	inactive: 23.8%
CC(C)c1ccc(NC(=O)NCc2ccc3c(c2)OCO3)cc1	inconclusive: 50.4%
CC(C)(C)OC(=O)N1CCCC1C(=O)N1CCc2ccccc21 (centres undefined)	inconclusive: 56.2%
Cc1cccc(OCC(=O)N/N=C/C=C/c2ccco2)c1	inactive: 59.6%
C=CCOc1ccc(CNc2ccc3[nH]c(=O)[nH]c3c2)cc1OC	inconclusive: 57.1%
Fc1ccc(-c2nc3cnccn3c2NC2CCCC2)cc1	inconclusive: 52.7%
CN(C)S(=O)(=O)c1cccc(C(=O)OCC(=O)NC2CCCc3ccccc32)c1 (centres undefined)	inconclusive: 70.4%
COc1ccc(C2C(C(=O)Nc3cccnc3)=C(C)Nc3nc(-c4cccs4)nn32)cc1OC (centres undefined)	inconclusive: 54.2%
CCCOc1ccc(N2C(=O)C3C(C(C)C)NC4(C(=O)c5ccccc5C4=O)C3C2=O)cc1 (centres undefined)	inconclusive: 66.1%
O=C1c2cccc3cccc(c23)C(=O)N1CCN1CCN(CC(O)COc2ccc3ccccc3c2)CC1 (centres undefined)	inconclusive: 55.3%
COc1ccc(Br)cc1/C=c1\sc2nc(-c3ccco3)nn2c1=O	active: 66.4%
N=C1S/C(=C\c2ccco2)C(=O)N1c1nccs1	active: 50%
Cc1ccc(CS(=O)Cc2ccc(C(=O)N3CCN(C4CCCCC4)CC3)o2)cc1 (centres undefined)	inconclusive: 62.5%
O=C(c1cccc(C(=O)N(c2ccccn2)C2CCCCC2)c1)N(c1ccccn1)C1CCCCC1	inactive: -10.9%

Ordered by formula weight (smallest number first): part of the list above.
SMILES	inhibition
N=C1S/C(=C\c2ccco2)C(=O)N1c1nccs1	active: 50%
Cc1cccc(OCC(=O)N/N=C/C=C/c2ccco2)c1	inactive: 59.6%
CCC1(C)Cc2nc3sc(C(=O)O)c(N)c3cc2CO1 (centres undefined)	inactive: 23.8%
CCN1CCN(C(=O)c2ccc(COc3ccc(Cl)cc3)o2)CC1	inconclusive: 73.9%
Cc1ccc[n+](/C(C(=S)NCc2ccco2)=C(/[O-])c2ccccc2Cl)c1	inconclusive: 57.6%
O=C(c1cccc(C(=O)N(c2ccccn2)C2CCCCC2)c1)N(c1ccccn1)C1CCCCC1	inactive: -10.9%

The listing continues:

SMILES	inhibition
CCN1C(=O)/C(=C/C=C2/Sc3ccc4ccccc4c3N2CCO)SC1=S	active: 74.6%
NC(=O)c1c(NC(=O)CSc2nnc(-c3ccco3)n2N)sc2c1CCCC2	inconclusive: 50.7%
COc1ccc(-c2csc(N3C(=N)SCC3=O)n2)cc1	inconclusive: 52.1%
COc1ccc(OCC(O)Cn2c(N)nc3c2c(=O)[nH]c(=O)n3C)cc1 (centres undefined)	inconclusive: 64.3%
CN1/C(=C\C(=O)C[n+]2ccc(C(=O)c3ccccc3)cc2)C(C)(C)c2ccccc21	inconclusive: 52.6%
O=C(O)C1=C[C@@H](C2CC2)C[C@@H](OCc2ccc(CO)cc2)O1	inconclusive: 56.1%
COc1ccccc1OCC(=O)N/N=C/C=C/c1ccc([N+](=O)[O-])o1	active: 54.5%
Fc1ccc(-c2cc(-c3ccccc3)nc(-n3cccn3)n2)cc1	inconclusive: 68.3%
CCN(CC)c1ccc(/C=N/NC(=O)c2nnn(-c3nonc3N)c2-c2ccc(C)cc2)cc1	inconclusive: 62.6%
CCS(=O)(=O)c1nc(S(=O)(=O)c2ccc(C)cc2)c(N2CCCC(C)C2)s1 (centres undefined)	inconclusive: 50.8%
Cc1onc(-c2ccccc2Cl)c1C(=O)NNC(=O)c1nn(C)cc1Cl	inconclusive: 52.2%
O=C(Nc1cccc(S(=O)(=O)N2CCCCCC2)c1)c1ccc2ccccc2n1	inconclusive: 74%
COc1ccc2nnc(-c3ccccc3)n2n1	inconclusive: 55.6%
Cc1cccc(OCC(=O)Nc2ccc3oc(=O)ccc3c2)c1C	inconclusive: 58.7%
Cc1c(N=Cc2ccc(-c3ccc(Cl)cc3)o2)c(=O)n(-c2ccccc2)n1C	inconclusive: 66.4%
COc1ccc(C(=O)NCC(=O)OCc2ccc(F)cc2)cc1	inconclusive: 55.9%
O=C(O)CN1c2cccc3cccc(c23)S1(=O)=O	inconclusive: 52.3%
O=C(CSc1nc2ccccc2[nH]1)NC1CCCC1	inconclusive: 51%
CCc1cccc(NC(=O)C2CCCN(S(=O)(=O)c3ccc4[nH]c(=O)ccc4c3)C2)c1 (centres undefined)	inconclusive: 72.3%
Cc1noc(NS(=O)(=O)c2ccc(N/C=C\C(=O)c3cccs3)cc2)c1C	inconclusive: 52.4%
COc1ccc(NC(=O)CCC(=O)N/N=C/c2ccncc2)cc1	inconclusive: 51.8%
COC(=O)c1c(NC(=O)COC(=O)c2ccccc2O)sc2c1CCCCC2	inactive: -3%
O=C(O)c1ccc(N/N=C/c2ccc(-c3ccc(Cl)cc3Cl)o2)cc1	inconclusive: 88.3%

SMILES	inhibition
COc1ccccc1CN1CCNC(=O)C1CC(=O)N(C)Cc1ccon1 (centres undefined)	inconclusive: 50.9%
Cc1ccc(Nc2nc(-c3ccc(S(=O)(=O)N4CCCC4)cc3)cs2)cc1C	inactive: 36.3%
CCCc1cc(=O)c2ccc(OC/C(C)=N/O)cc2o1	inconclusive: 74.9%
CCn1c(SCC(=O)NC2CCCCC2)nnc1C(C)NC(=O)c1ccccc1F (centres undefined)	inactive: 8.6%
O=C1c2ccccc2C(=O)N1c1ccc(-c2nc3ccccc3o2)cc1	active: 67.9%
Oc1c(Br)cc(C=Nc2ccc3nc(-c4ccccc4)[nH]c3c2)c(O)c1Br	active: 83.1%
CCc1ccc(NC(=O)c2cc3c(C)nc4ccccc4c3o2)cc1	inconclusive: 72%
NC(=O)c1ccc2c(=O)n3c(-c4cc(Cl)c(N)c(Cl)c4)csc3nc2c1	inactive: -27%
O=P(c1ccccc1)(c1ccccc1)N(c1ccccc1)c1ccccc1	inconclusive: 58.5%
S=C(Nc1ccc2nsnc2c1)N1CCCCCC1	inconclusive: 70.7%
CCOC(=O)C1Cc2cc3c(cc2C1=O)CC(C(=O)OCC)C3=O (centres undefined)	inconclusive: 71.4%
COc1cc(/C=C/c2ccc3c(Br)cc(Br)c(O)c3n2)ccc1O	active: 56.6%
COCCNc1nc2c(-c3cccc(C(F)(F)F)c3)nnn2c2ccccc12	inconclusive: 54.5%
CCN=C1NN=C(c2cc(C)n(Cc3ccco3)c2C)CS1	active: 57.5%
CC(OC(=O)c1ccc2c(c1)C(=O)N(Cc1ccncc1)C2=O)C(=O)Nc1cccc(Cl)c1Cl (centres undefined)	inconclusive: 52.4%
O=C(O)C1Nc2c(O)cc(Cl)c([N+](=O)[O-])c2C2C=CCC12 (centres undefined)	inconclusive: 88%
CC12CCC(C(=O)N(CCCCN3CCN(Cc4ccccc4)CC3)C1=O)C2(C)C (centres undefined)	inconclusive: 63.7%
CC(=O)c1sc(Nc2ccccn2)nc1C	inconclusive: 59.8%
CCOCCCNC(=S)NCCCNc1nc2c(C)c(C)ccc2cc1C#N	inconclusive: 51.6%
O=C(Nc1ccc(NC(=O)c2sc3ccccc3c2Cl)cc1Cl)c1ccco1	inactive: 31.4%
O=C(CC1NCCNC1=O)Nc1ccc2c(c1)OCO2 (centres undefined)	inconclusive: 70.9%
COCc1cc(C)nc(SCC(=O)Nc2cccc3cccnc23)c1C#N	inconclusive: 56.1%
CC(=O)c1cccc(S(=O)(=O)N2CCN(c3nc4cc(C)cc(C)c4cc3C#N)CC2)c1	inconclusive: 70.7%

SMILES	inhibition
Cn1c(C(=O)N2CCOCC2)cc2c(=O)n3ccccc3nc21	inconclusive: 60.9%
O=[N+]([O-])c1ccc(Cl)c(/C=N/N2CCN(C3c4ccccc4-c4ccccc43)CC2)c1	inconclusive: 76.1%
C=CCn1c(C)cc(-c2csc(NCC)n2)c1C	inconclusive: 62.1%
c1ccc(C(c2ccccc2)c2nc(-c3cccnc3)no2)cc1	inconclusive: 53.5%
CCC1CCCCN1C(=O)CCC(=O)Nc1nnc(C(F)(F)F)s1 (centres undefined)	inconclusive: 56.8%
Cc1ccc(NC(=O)c2c(F)cccc2Cl)cc1NS(C)(=O)=O	inconclusive: 64.3%
CCOC(=O)c1nn(-c2ccccc2)c2nnc(Cc3ccc(Cl)cc3)c(=O)n12	inconclusive: 65%
CN(Cc1c(C(=O)N/N=C/c2cccs2)nnn1-c1nonc1N)c1ccccc1	inconclusive: 85%
Cn1nc(C(F)(F)F)c(-c2ccc(Br)cc2)c1NC(=O)c1nccnc1C(=O)O	inactive: 0.4%
COc1cc(/C=C2\CCc3c2nc2ccccc2c3C(=O)O)cc(OC)c1OC	inconclusive: 59%
O=C(/C=C/c1ccncc1)c1cc(Cl)ccc1O	inconclusive: 64.9%
COc1ccc(CCN2Cc3c(N)cccc3C2=O)cc1OC	inconclusive: 51.6%
CN(C)/C=N/c1nc2nccc(-c3cccc(Cl)c3)n2n1	inconclusive: 55.1%
CN1CCN(C2=Cc3cc(Cl)ccc3Sc3cc(F)ccc32)CC1	inconclusive: 64.5%
Cc1ccc(-n2ncc3c2CCCC3NC(=O)CCc2c(C)noc2C)cc1C (centres undefined)	inactive: 16.6%
Cc1cc(C)c(S(=O)(=O)Nc2ccccn2)c(C)c1	inconclusive: 97%
Cc1cc(Cl)ccc1C(=O)C1CCCN(C(=O)c2nonc2C)C1 (centres undefined)	inconclusive: 59.3%
O=C(c1ccc(Cl)cc1)N1CCn2c1nc1ccccc12	inconclusive: 64%
NS(=O)(=O)c1ccc(C(=O)Nc2ccc(-c3nc4cccnc4s3)cc2)cc1	inconclusive: 80.6%
CCOC(=O)C(O)C1CCc2c([nH]c3ccc(C)cc23)C1=O (centres undefined)	inconclusive: 77.4%
